PubChem BioAssay AID1259254 – NCATS | 2017
Here is an unselected part of about 59,000 deposited reagents. Over the whole deposit, about 1,550 (2.6%) got an active call. 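G2 share is only a proxy for re-replication; each gene was hit by three separate siRNAs, and active genes were retested.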 The numbers tell different reagents against one gene apart. Further read-outs or replicates are left out here. Not given: the amount of reagent.

Aim: 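Gene knock-downs that lead to re-replication, shown by excess G2 DNA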 (primary screen)
System: human HCT116 colorectal cancer cells
Knock-down reagent: single siRNA against human genes
Duration: 3 days
Read-out: 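Nuclei stained with Hoechst and imaged; cell-cycle phase assigned by DNA content; G2 share scaled per plate, non-targeting siRNA 0%, GMNN siRNA 100%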
Scale: G2 robust z-score and G2 cells, % of GMNN control: higher = more G2 cells, more excess DNA replication
Call rule: 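Active siRNAs have a G2 robust z of 5 or more median absolute deviations over the median, which in these data means about 38% or higher of GMNN control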

With knock-down of YBEY #1, the record shows G2 robust z-score -0.32; G2 cells, % of GMNN control 0.717; inactive. For YBEY #2, the entry reads G2 robust z-score -1; G2 cells, % of GMNN control -4.08; inactive. Knock-down of YBEY #3 came out at: G2 robust z-score -0.391; G2 cells, % of GMNN control 0.215; inactive. SEMA4A #1 scored G2 robust z-score 1.78; G2 cells, % of GMNN control 15.5; inactive. SEMA4A #2 gave G2 robust z-score 2.24; G2 cells, % of GMNN control 18.7; inactive. SEMA4A #3 gave G2 robust z-score 0.0922; G2 cells, % of GMNN control 3.62; inactive.

With knock-down of REELD1 #1 the results were G2 robust z-score 0.598; G2 cells, % of GMNN control 7.18; inactive. REELD1 #2 showed G2 robust z-score -0.591; G2 cells, % of GMNN control -1.19; inactive. Knock-down of REELD1 #3 resulted in: G2 robust z-score 0.687; G2 cells, % of GMNN control 7.8; inactive. ZNF487 #1 showed G2 robust z-score -0.373; G2 cells, % of GMNN control 0.342; inactive. ZNF487 #2 scored G2 robust z-score 0.78; G2 cells, % of GMNN control 8.46; inactive. Against ZNF487 #3, the values are G2 robust z-score 0.384; G2 cells, % of GMNN control 5.67; inactive.

ZNF32 #1 gave G2 robust z-score -0.861; G2 cells, % of GMNN control -3.09; inactive. With knock-down of ZNF32 #2, the record shows G2 robust z-score -1.06; G2 cells, % of GMNN control -4.48; inactive. ZNF32 #3 showed G2 robust z-score 2.63; G2 cells, % of GMNN control 21.5; inactive. OR6C68 #1 gave G2 robust z-score -0.553; G2 cells, % of GMNN control -0.925; inactive. OR6C68 #2 scored G2 robust z-score 0.0559; G2 cells, % of GMNN control 3.36; inactive. Against OR6C68 #3 the deposit lists G2 robust z-score 0.89; G2 cells, % of GMNN control 9.23; inactive.

Depletion of RRP8 #1 resulted in: G2 robust z-score -0.115; G2 cells, % of GMNN control 2.16; inactive. After knock-down of RRP8 #2, the record shows G2 robust z-score 1.14; G2 cells, % of GMNN control 11; inactive. With knock-down of RRP8 #3 the results were G2 robust z-score -0.0845; G2 cells, % of GMNN control 2.37; inactive. OR8B2 #1 scored G2 robust z-score 8.28; G2 cells, % of GMNN control 61.2; active. After knock-down of OR8B2 #2, the screen gave G2 robust z-score 3.6; G2 cells, % of GMNN control 28.3; inactive. OR8B2 #3 scored G2 robust z-score 1.03; G2 cells, % of GMNN control 10.2; inactive.

3 of these entries, set out differently:
| Target gene | siRNA no. | G2 robust z-score | G2 cells, % of GMNN control | Outcome |
| --- | --- | --- | --- | --- |
| ZNF32 | 3 | 2.63 | 21.5 | inactive |
| OR6C68 | 1 | -0.553 | -0.925 | inactive |
| OR6C68 | 2 | 0.0559 | 3.36 | inactive |
